Reference: PubChem BioAssay AID192 (DTP/NCI, 2004)
The list shows only some results of the screen, not a fair sample: it gathers tests that were run many times, whatever their T/C, doses with no T/C, and many T/C values between a quarter and a half above the control. Other doses and runs of a compound stand elsewhere. T/C is the treated group as % of the vehicle group. Some entries give survivors of the animals treated and no T/C: the source files T/C as zero there, which appears to mark a toxic dose or a test without result, not a measured value. Some survivor counts are full or nearly so, which does not show that the dose was tolerated: the source hardly ever lists a survival T/C far under the control, and the zero likely stands for such cases as well. Counts of survivors are from the toxicity check (mostly the fifth day) where no day follows; animals may have died later. Schedules are NCI's codes, taken here to give the interval after Q, in days (D) or hours (H), and the number of doses after X. Some entries were tested several times; the values are given in rising order. For survival time, the PubChem record calls one and a half times the control and up active, and a quarter to a half above the control has no call in these data; cut-offs in other NCI protocols can differ. Some T/C values carry the count of animals alive at the toxicity check (mostly the fifth day); without a count, all were alive then.

Test system: BDF1 mice, B16 melanoma ip, median survival T/C
Test: NCI In Vivo Anticancer Drug Screen. Data for tumor model B16 Melanoma (intraperitoneal) in B6D2F1 (BDF1) mice
Settings: T/C endpoint: median survival time, schedule: Q01DX009 (ip), higher T/C = longer survival
Procedure, shortened: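 In this screen, activity was judged from survival or tumor size in treated versus vehicle-treated tumor-bearing mice, reported as T/C.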

[1] = dose: 6.25 mg/kg/injection, vehicle: saline with Tween-80
[2] = dose: 12.5 mg/kg/injection, vehicle: saline with Tween-80
[3] = dose: 200.0 mg/kg/injection, vehicle: saline
[4] = dose: 400.0 mg/kg/injection, vehicle: saline
[5] = dose: 50.0 mg/kg/injection, vehicle: saline with Tween-80
[6] = dose: 100.0 mg/kg/injection, vehicle: saline with Tween-80
[7] = dose: 400.0 mg/kg/injection, vehicle: Klucel (hydroxypropylcellulose) (HPC)
[8] = dose: 400.0 mg/kg/injection, vehicle: saline with Tween-80
[9] = dose: 200.0 mg/kg/injection, vehicle: saline with Tween-80
[10] = dose: 160.0 mg/kg/injection, vehicle: water

## CCCC1CC[N-]CC1.CCCC1CC[N-]CC1.CCCC1CC[N-]CC1.CCCC1CC[N-]CC1.[Cl][Rh][Cl]
dose: 3.0 mg/kg/injection, vehicle: Klucel (hydroxypropylcellulose) (HPC)
  survivor count: 5 of 10
dose: 6.0 mg/kg/injection, vehicle: Klucel (hydroxypropylcellulose) (HPC)
  survivor count: 0 of 10
[1]
  survivor count: 8 of 10
[2]
  survivor count: 5 of 6
dose: 25.0 mg/kg/injection, vehicle: saline with Tween-80
  survivor count: 3 of 6
dose: 100.0 mg/kg/injection, vehicle: saline
  survivor count: 0 of 6
[3]
  survivor count: 0 of 6
[4]
  survivor count: 0 of 6

## Cc1c([C@H](C)[C@@H]2NC[C@@H](C)C[C@H]2O)ccc2c1C[C@H]1[C@H]2CC=C2C[C@@H](O)CC[C@@]21C
dose: 6.0 mg/kg/injection, vehicle: saline
  survivor count: 6 of 6
dose: 12.0 mg/kg/injection, vehicle: saline
  survivor count: 0 of 6

## CC(=O)NSCC(NC(=O)OC(C)(C)C)C(=O)O (configuration not stated)
[4]
  survivor count: 10 of 10

## CCOC1CCC2C(CCC(/C=C/c3ccc(O)c4ncccc34)N2C)C1 (configuration not stated)
[2]
  survivor count: 10 of 10
[5]
  survivor count: 10 of 10
[6]
  survivor count: 10 of 10

## O=C(Nc1ccc(Cl)c(Cl)c1)Nc1c(Oc2ccc(Cl)c(Cl)c2)ccc(Cl)c1S(=O)(=O)O
dose: 3.12 mg/kg/injection, vehicle: saline with Tween-80
  T/C: 142 % of control
[2]
  T/C: 149 % of control
[5]
  T/C: 129 % of control
[6]
  T/C: 149 % of control

## Nc1nncs1
dose: 64.0 mg/kg/injection, vehicle: saline
  survivor count: 10 of 10
dose: 128.0 mg/kg/injection, vehicle: other
  survivor count: 6 of 6
dose: 128.0 mg/kg/injection, vehicle: saline
  survivor count: 9 of 10
dose: 256.0 mg/kg/injection, vehicle: other
  survivor count: 6 of 6
dose: 256.0 mg/kg/injection, vehicle: saline
  survivor count: 8 of 10

## CC(=O)[S][Pb]([c]1ccccc1)([c]1ccccc1)[c]1ccccc1
dose: 4.0 mg/kg/injection, vehicle: Klucel (hydroxypropylcellulose) (HPC)
  survivor count: 0 of 10
dose: 4.0 mg/kg/injection, vehicle: saline with Tween-80
  survivor count: 9 of 10
dose: 5.9 mg/kg/injection, vehicle: Klucel (hydroxypropylcellulose) (HPC)
  survivor count: 0 of 10
dose: 5.9 mg/kg/injection, vehicle: saline with Tween-80
  survivor count: 9 of 10
dose: 9.0 mg/kg/injection, vehicle: Klucel (hydroxypropylcellulose) (HPC)
  survivor count: 0 of 10
dose: 9.0 mg/kg/injection, vehicle: saline with Tween-80
  survivor count: 9 of 10

## CC(=O)OC(C)c1ccccc1 (configuration not stated)
[7]
  survivor count: 9 of 10

## O=C(Nc1ccccc1C(F)(F)F)c1ccc(Cl)cc1Cl
[8]
  survivor count: 10 of 10

## Nc1nc(N)n2c(N)nnc2n1
[4]
  survivor count: 10 of 10

## CCSC(=O)N1c2ccc(OC)cc2C=CC1C#N (configuration not stated)
[9]
  T/C: 125 % of control
[8]
  T/C: 129 % of control

## CCCC(=O)NC1=C(N2CC2)C(=O)C(NC(=O)CCC)=C(N2CC2)C1=O
dose: 4.0 mg/kg/injection, vehicle: saline
  survivor count: 10 of 10
dose: 8.0 mg/kg/injection, vehicle: saline
  survivor count: 5 of 10

## O=C1NC(=O)C2C3C=CC(C12)C1C2C(=O)NC(=O)C2C31 (configuration not stated)
dose: 25.0 mg/kg/injection, vehicle: suspension in saline
  T/C: 126 % of control
dose: 50.0 mg/kg/injection, vehicle: suspension in saline
  T/C: 131 % of control
dose: 100.0 mg/kg/injection, vehicle: suspension in saline
  survivor count: 10 of 10
dose: 200.0 mg/kg/injection, vehicle: suspension in saline
  survivor count: 6 of 10

## C=C(C)[C@]12CC(C)C34OC(/C=C\C=C\CCCCCCCCC)(O[C@@H]1[C@@H]3[C@@H]1O[C@]1(CO)[C@@H](O)[C@]1(O)C(=O)C(C)=C[C@@H]41)O2 (some centres not stated)
dose: 0.38 mg/kg/injection, vehicle: alcohol
  survivor count: 10 of 10
dose: 0.75 mg/kg/injection, vehicle: alcohol
  survivor count: 10 of 10
dose: 0.75 mg/kg/injection, vehicle: saline + alcohol
  survivor count: 8 of 10 and 9 of 10
dose: 1.5 mg/kg/injection, vehicle: alcohol
  survivor count: 9 of 10
dose: 1.5 mg/kg/injection, vehicle: saline + alcohol
  survivor count: 4 of 10
dose: 3.0 mg/kg/injection, vehicle: alcohol
  survivor count: 0 of 10
dose: 3.0 mg/kg/injection, vehicle: saline + alcohol
  survivor count: 0 of 10

## Cc1ccc(S(=O)(=O)NC(CSCc2ccccc2)C(=O)O)cc1 (configuration not stated)
[9]
  survivor count: 10 of 10

## O=[N+]([O-])c1cccc(C(O)C=C(C(F)(F)F)C(F)(F)F)c1 (configuration not stated)
[5]
  survivor count: 10 of 10

## CCOc1ccc(NC(=O)Nc2ccccc2OC)cc1
dose: 100.0 mg/kg/injection, vehicle: Klucel (hydroxypropylcellulose) (HPC)
  survivor count: 10 of 10
dose: 200.0 mg/kg/injection, vehicle: Klucel (hydroxypropylcellulose) (HPC)
  survivor count: 10 of 10
[7]
  survivor count: 10 of 10

## O=C(O)C1(NO)CCCC1
dose: 50.0 mg/kg/injection, vehicle: saline
  T/C: 125 % of control
[3]
  survivor count: 10 of 10

## COc1cc2c3cc1Oc1c(O)c(OC)cc4c1[C@H](Cc1ccc(cc1)Oc1cc(ccc1O)C[C@H]3N(C)CC2)N(C)CC4
[10]
  T/C: 141 % of control [9 of 10 alive]
  survivor count: 10 of 10
[9]
  survivor count: 10 of 10

## C/C=C/C=C1/OC(C)=C(C(C)=O)C1=O
[9]
  survivor count: 4 of 9
[8]
  survivor count: 0 of 10

## COc1cc2ccc3c[n+](C)ccc3c2cc1OC
dose: 200.0 mg/kg/injection, vehicle: water
  survivor count: 3 of 10

## O=C(NC(Cc1ccccc1)C(=O)NC(Cc1c[nH]c2ccccc12)C(=O)O)OCc1ccccc1 (configuration not stated)
[8]
  survivor count: 9 of 10

## C=C(C)C12OC3(/C=C/C=C/CCCCC)OC1C1C4OC4(CO)C(O)C4(O)C(=O)C(C)=CC4C1(O3)C(C)C2OC(=O)c1ccccc1 (configuration not stated)
dose: 0.5 micrograms/kg/injection, vehicle: saline
  survivor count: 10 of 10
dose: 1.0 micrograms/kg/injection, vehicle: saline
  survivor count: 9 of 10
dose: 1.9 micrograms/kg/injection, vehicle: saline
  survivor count: 10 of 10
dose: 3.8 micrograms/kg/injection, vehicle: saline
  survivor count: 10 of 10
dose: 7.5 micrograms/kg/injection, vehicle: saline
  survivor count: 9 of 10
dose: 15.0 micrograms/kg/injection, vehicle: saline
  survivor count: 10 of 10
dose: 30.0 micrograms/kg/injection, vehicle: saline
  survivor count: 10 of 10

## CCc1cccc(CC)c1N1C(=O)C=CC1=O
dose: 3.13 mg/kg/injection, vehicle: saline with Tween-80
  survivor count: 10 of 10
[1]
  survivor count: 10 of 10
[2]
  survivor count: 9 of 9

## C=C1C(=O)OC2CC1CCC1(C)OC1CCC(C)=CCCC2(C)O (configuration not stated)
dose: 3.7 mg/kg/injection, vehicle: Klucel (hydroxypropylcellulose) (HPC)
  survivor count: 10 of 10
